At least one compound was matched to its structure with a doubt left.
Test system: Campylobacter jejuni DSM-24306
Experiment: drop plate enumeration of viable cells on Columbia Blood Agar
Type: cell-based
Source text: The pathogens of interest Salmonella enterica subsp. enterica and Campylobacter jejuni were cultivated in microtiter plate scale in order to enable the simultaneous application of four different starting culture concentrations and treatments (Table 3). For analysis, samples for DNA extraction were taken after different times of cultivation and applied for qPCR enumeration of Salmonella enterica subsp. enterica and Campylobacter jejuni specific genes. As the qPCR assay is designed to record both viable and non-viable cells, an additional viability check was performed for AB treated cultures and the untreated controls.
In order to evaluate the effect of bactericidic effect Kanamycin, drop plate tests were performed to determine the number of viable cells. Three dilutions of a ten-fold series of the high (dilutions 10^−3, 10^−4 and 10^−5) and low (dilutions 10′, 10^−2 and 10^−3) inoculated culture after 0 and 6 h were plated in triplicates on CBA (Campylobacter) or tryptic soy agar (TSA) (Salmonella) by dropping 10 μl on the agar. The plates were evaluated regarding growth at the distinct log dilutions after 24 h incubation (41° C. microaerophilic for Campylobacter, 37° C. aerobic for Salmonella).

## NC[C@H]1O[C@H](O[C@H]2[C@H](O)[C@@H](O[C@H]3O[C@H](CO)[C@@H](O)[C@H](N)[C@H]3O)[C@H](N)C[C@@H]2N)[C@H](O)[C@@H](O)[C@@H]1O [Kanamycin]
Kanamycin 50 μl/ml
  effect of Kanamycin on C. jejuni (agar drop assay): not only inhibitory but also bactericidal effect
High and low concentrated inoculum, 6 h
  growth of viable cells after 6 h of incubation in presence of Kanamycin: no growth is detected

Reference: patent US20200239938A1 (priority 2017, published 2020)
